Test results as given in paper doi:10.1101/2025.05.20.654906.
These are yes or no findings as the source states them, for the method shown. Binding seen in cells or lysates may run through a third protein. Some entries that bind do so weakly or less than the wild type.

By UniProt entry, the sequences of proteins in these tests, tags left out.
UniProt Q9LQM7: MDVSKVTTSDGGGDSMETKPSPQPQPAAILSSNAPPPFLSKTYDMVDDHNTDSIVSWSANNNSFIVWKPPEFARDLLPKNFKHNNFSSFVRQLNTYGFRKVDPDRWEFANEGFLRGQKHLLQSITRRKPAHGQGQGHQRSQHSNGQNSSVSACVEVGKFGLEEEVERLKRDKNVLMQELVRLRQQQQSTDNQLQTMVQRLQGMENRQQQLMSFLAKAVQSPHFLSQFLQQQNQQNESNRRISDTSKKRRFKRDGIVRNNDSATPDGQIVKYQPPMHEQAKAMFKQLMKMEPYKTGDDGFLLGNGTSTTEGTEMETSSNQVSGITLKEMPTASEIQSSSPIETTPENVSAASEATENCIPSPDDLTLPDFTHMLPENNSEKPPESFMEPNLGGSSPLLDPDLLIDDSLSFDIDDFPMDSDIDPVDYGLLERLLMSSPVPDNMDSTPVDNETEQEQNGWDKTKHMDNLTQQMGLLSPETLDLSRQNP
UniProt P22953: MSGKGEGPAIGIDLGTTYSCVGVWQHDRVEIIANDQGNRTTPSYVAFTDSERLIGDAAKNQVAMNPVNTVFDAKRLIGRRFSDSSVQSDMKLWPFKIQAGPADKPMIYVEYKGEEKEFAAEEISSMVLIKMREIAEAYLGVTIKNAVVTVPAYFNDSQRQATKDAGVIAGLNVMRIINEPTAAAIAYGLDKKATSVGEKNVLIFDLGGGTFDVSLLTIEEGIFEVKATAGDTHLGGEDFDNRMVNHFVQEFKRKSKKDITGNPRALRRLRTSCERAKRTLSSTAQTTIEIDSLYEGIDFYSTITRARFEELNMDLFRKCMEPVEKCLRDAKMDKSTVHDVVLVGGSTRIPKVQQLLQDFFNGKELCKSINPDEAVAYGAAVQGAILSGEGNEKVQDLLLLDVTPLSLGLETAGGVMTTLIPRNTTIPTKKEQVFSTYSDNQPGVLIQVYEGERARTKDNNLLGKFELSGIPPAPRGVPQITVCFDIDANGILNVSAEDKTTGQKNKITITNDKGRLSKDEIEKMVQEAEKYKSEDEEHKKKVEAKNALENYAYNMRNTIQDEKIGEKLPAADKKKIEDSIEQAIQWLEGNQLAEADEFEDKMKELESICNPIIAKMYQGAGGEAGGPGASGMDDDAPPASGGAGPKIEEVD

Target: HsfA1d (endogenous) (Arabidopsis thaliana (endogenous in seedlings)) (UniProt Q9LQM7)
Experiment: co-IP

## Hsc70-1 (from UniProt P22953 1-651)
  binding: binds
